In the supplement of paper PMC9233669:
Variants at the floor of the assay are shown more often than the library holds them.

What was measured:
[1] = test system: biotinyl-Phe-oxazolone; test: self-aminoacylation, catalytic enhancement (BFO) (fold over background); higher = more active; k-Seq, kA / k0A0; sequences stand for … in GGGAAUGGAUCCACAUCUACGAAUUC…UUCACUGCAGACUUGACGAAGCUG
Outline: (§1)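 The uncatalyzed rate is the low-activity peak of a bimodal Gaussian fit, and catalytic enhancement is median kA divided by it. The kA values came from pseudo-first-order fits, with 1000 bootstraps, of per-sequence fraction reacted measured by streptavidin capture, triplicate qPCR and Illumina sequencing. Mutagenized RNA pools with a 21-nt variable region (0.43 μM) were reacted with each biotinyl-aminoacyl-oxazolone at 2–1250 μM in 50 μL HEPES/NaCl/KCl/MgCl2/CaCl2 buffer with 5% acetonitrile, pH 6.9–7.0, for 90 minutes at room temperature.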

[2] = test system: biotinyl-Ile-oxazolone; test: self-aminoacylation, catalytic enhancement (BIO) (fold over background); higher = more active; k-Seq, kA / k0A0; sequences stand for … in GGGAAUGGAUCCACAUCUACGAAUUC…UUCACUGCAGACUUGACGAAGCUG
Outline: as §1

[3] = test system: biotinyl-Leu-oxazolone; test: self-aminoacylation, catalytic enhancement (BLO) (fold over background); higher = more active; k-Seq, kA / k0A0; sequences stand for … in GGGAAUGGAUCCACAUCUACGAAUUC…UUCACUGCAGACUUGACGAAGCUG
Outline: as §1

[4] = test system: biotinyl-Met-oxazolone; test: self-aminoacylation, catalytic enhancement (BMO) (fold over background); higher = more active; k-Seq, kA / k0A0; sequences stand for … in GGGAAUGGAUCCACAUCUACGAAUUC…UUCACUGCAGACUUGACGAAGCUG
Outline: as §1

[5] = test system: biotinyl-Val-oxazolone; test: self-aminoacylation, catalytic enhancement (BVO) (fold over background); higher = more active; k-Seq, kA / k0A0; sequences stand for … in GGGAAUGGAUCCACAUCUACGAAUUC…UUCACUGCAGACUUGACGAAGCUG
Outline: as §1

[6] = test system: biotinyl-Trp-oxazolone; test: self-aminoacylation, catalytic enhancement (BWO) (fold over background); higher = more active; k-Seq, kA / k0A0; sequences stand for … in GGGAAUGGAUCCACAUCUACGAAUUC…UUCACUGCAGACUUGACGAAGCUG
Outline: as §1

Sequence	self-aminoacylation [1]	self-aminoacylation [2]	self-aminoacylation [3]	self-aminoacylation [4]	self-aminoacylation [5]	self-aminoacylation [6]
CUCCUUCAAACAAUGGGUCUG [Fam1A.1 aminoacylation ribozyme variant]	0.816	0.855	1.05	0.901	0.982	0.877
CUCCUUCGAACAAUCGGUCUG [Fam1A.1 aminoacylation ribozyme variant]	0.935	0.685	0.762	0.754	0.86	0.731
CUUACCCGGGUCAUCGAGUGA [Fam2.1 aminoacylation ribozyme variant]	36.5	3.03	7.48	5.92	3.48	7.34
CUUACCCUGGUCGUCGAGUGA [Fam2.1 aminoacylation ribozyme variant]	5.47	0.904	0.967	1.29	1.22	1.64
CUUCUUCAAACAAUUGGUCUG [Fam1A.1 aminoacylation ribozyme variant]	1.14	1.04	1.12	1.05	0.921	1.05
GAGUUUGCUAAUAAUCGCAAG [Fam3.1 aminoacylation ribozyme variant]	1.66	1.45	0.992	0.886	1.13	1.27
GAGUUUGCUAAUAGUCGCAGG [Fam3.1 aminoacylation ribozyme variant]	6.69	1.77	2.11	1.9	1.75	3.34
GAGUUUGCUAAUAGUUGCAAG [Fam3.1 aminoacylation ribozyme variant]	1.71	1.1	1.03	1.01	0.89	1.26
GCACACUUCAAGCAAUGGGUC [Fam1B.1 aminoacylation ribozyme variant]	1.11	0.966	1.02	0.948	1.03	0.846
GCACACUUCAUGCAAUCGGUC [Fam1B.1 aminoacylation ribozyme variant]	1.61	1.62	1.33	1.33	1.69	1.68
GCGCACUUCAAGCAAUCGGUC [Fam1B.1 aminoacylation ribozyme variant]	41.1	2.12	2.65	2.04	2.2	29.6
GUACUUCAAACAAUCGGCCUG [Fam1A.1 aminoacylation ribozyme variant]	272	4.51	7.02	4.06	4.17	89.6
UACUUUGCUAAUAGUCGCAAG [Fam3.1 aminoacylation ribozyme variant]	2.71	1.75	1.86	1.66	1.33	1.46
UAGUUUGCAAAUAGUCGCAAG [Fam3.1 aminoacylation ribozyme variant]	2	1.33	1.5	1.04	1.27	1.18
UCACACUUCAAGAAAUCGGUC [Fam1B.1 aminoacylation ribozyme variant]	7.38	0.947	0.906	0.819	0.888	6.06
UCACACUUCAAGCAAACGGUC [Fam1B.1 aminoacylation ribozyme variant]	0.679	0.639	0.506	0.682	0.792	0.586
UUACUUCAAACAAUCGGUAUG [Fam1A.1 aminoacylation ribozyme variant]	12.4	1.16	1.3	1.02	1.02	7.05
UUACUUCAAACAAUCGGUCCG [Fam1A.1 aminoacylation ribozyme variant]	1.69	0.82	0.937	0.942	0.891	1.64
UUUACCCUGGUCAUUGAGUGA [Fam2.1 aminoacylation ribozyme variant]	38.1	3.76	7.06	7.86	3.91	10.1
UUUCACGUAGGUCAUCGGGUG [Fam2.2 aminoacylation ribozyme variant]	32.2	2.89	3.88	4.24	4.25	4.06
